Our source for the binding values is article PMC9127447.

No constants are given. Whether binding was seen depends on the method and setting. Some entries that bind do so weakly or less than the wild type. Tags and fused reporters may be left off the sequences shown.

Test [1] has as its target His-tagged rat dynamin 2-WT (rat) (UniProt P39052). The test is described as follows: atomic force microscopy; mixture of dynamin 2 and actin filaments in F-buffer with 50 mM KCl, spun onto a glass stage (6,000 x g, 20 min), fixed with 0.01% glutaraldehyde, imaged in F-buffer at room temperature; both purified.
Test [2] has the same target. The test is described as follows: negative-stain transmission electron microscopy; 1.5 uM dynamin with 1 uM actin filaments in F-buffer with 50 mM KCl (low ionic strength), 4 C, 16 h; both purified.
Test [3] has the same target. The test is described as follows: negative-stain transmission electron microscopy; dynamin 2 alone, without liposomes, under GDP-Pi conditions; ring-shaped polymers; both purified.
Test [4] addresses His-tagged rat dynamin 2-K562E (rat) (UniProt P39052). Put plainly: negative-stain transmission electron microscopy; 1.5 uM dynamin with 1 uM actin filaments in F-buffer with 50 mM KCl (low ionic strength), 4 C, 16 h; both purified.
The target is the same in test [5]. Put plainly: negative-stain transmission electron microscopy; dynamin 2 alone, without liposomes, under GDP-Pi conditions; ring-shaped polymers; both purified.

B1: His-tagged rat dynamin 2-WT (enzyme, UniProt P39052 1-870)
chain: MGNRGMEELIPLVNKLQDAFSSIGQSCHLDLPQIAVVGGQSAGKSSVLENFVGRDFLPRGSGIVTRRPLILQLIFSKTEYAEFLHCKSKKFTDFDEVRQEIEAETDRVTGTNKGISPVPINLRVYSPHVLNLTLIDLPGITKVPVGDQPPDIEYQIKDMILQFISRESSLILAVTPANMDLANSDALKLAKEVDPQGLRTIGVITKLDLMDEGTDARDVLENKLLPLRRGYIGVVNRSQKDIEGRKDIRAALAAERKFFLSHPAYRHMADRMGTPHLQKTLNQQLTNHIRESLPTLRSKLQSQLLSLEKEVEEYKNFRPDDPTRKTKALLQMVQQFGVDFEKRIEGSGDQVDTLELSGGARINRIFHERFPFELVKMEFDEKDLRREISYAIKNIHGVRTGLFTPDLAFEAIVKKQVVKLKEPCLKCVDLVIQELISTVRQCTSKLSSYPRLREETERIVTTYIREREGRTKDQILLLIDIEQSYINTNHEDFIGFANAQQRSTQLNKKRAIPNQGEILVIRRGWLTINNISLMKGGSKEYWFVLTAESLSWYKDEEEKEKKYMLPLDNLKIRDVEKGFMSNKHVFAIFNTEQRNVYKDLRQIELACDSQEDVDSWKASFLRAGVYPEKDQAENEDGAQENTFSMDPQLERQVETIRNLVDSYVAIINKSIRDLMPKTIMHLMINNTKAFIHHELLAYLYSSADQSSLMEESAEQAQRRDDMLRMYHALKEALNIIGDISTSTVSTPVPPPVDDTWLQNTSSHSPTPQRRPVSSVHPPGRPPAVRGPTPGPPLIPMPVGATSSFSAPPIPSRPGPQNVFANNDPFSAPPQIPSRPARIPPGIPPGVPSRRAPAAPSRPTIIRPAEPSLLD
Regarding B1, the binding entry in test [1], in test [2] and in test [3] was “binds” in each case.

B2: His-tagged rat dynamin 2-K562E (enzyme, UniProt P39052 1-870)
chain: MGNRGMEELIPLVNKLQDAFSSIGQSCHLDLPQIAVVGGQSAGKSSVLENFVGRDFLPRGSGIVTRRPLILQLIFSKTEYAEFLHCKSKKFTDFDEVRQEIEAETDRVTGTNKGISPVPINLRVYSPHVLNLTLIDLPGITKVPVGDQPPDIEYQIKDMILQFISRESSLILAVTPANMDLANSDALKLAKEVDPQGLRTIGVITKLDLMDEGTDARDVLENKLLPLRRGYIGVVNRSQKDIEGRKDIRAALAAERKFFLSHPAYRHMADRMGTPHLQKTLNQQLTNHIRESLPTLRSKLQSQLLSLEKEVEEYKNFRPDDPTRKTKALLQMVQQFGVDFEKRIEGSGDQVDTLELSGGARINRIFHERFPFELVKMEFDEKDLRREISYAIKNIHGVRTGLFTPDLAFEAIVKKQVVKLKEPCLKCVDLVIQELISTVRQCTSKLSSYPRLREETERIVTTYIREREGRTKDQILLLIDIEQSYINTNHEDFIGFANAQQRSTQLNKKRAIPNQGEILVIRRGWLTINNISLMKGGSKEYWFVLTAESLSWYKDEEEKEKEYMLPLDNLKIRDVEKGFMSNKHVFAIFNTEQRNVYKDLRQIELACDSQEDVDSWKASFLRAGVYPEKDQAENEDGAQENTFSMDPQLERQVETIRNLVDSYVAIINKSIRDLMPKTIMHLMINNTKAFIHHELLAYLYSSADQSSLMEESAEQAQRRDDMLRMYHALKEALNIIGDISTSTVSTPVPPPVDDTWLQNTSSHSPTPQRRPVSSVHPPGRPPAVRGPTPGPPLIPMPVGATSSFSAPPIPSRPGPQNVFANNDPFSAPPQIPSRPARIPPGIPPGVPSRRAPAAPSRPTIIRPAEPSLLD
For the molecule B2, the binding entry in test [4] and in test [5] was “binds” in each case.
